Values from PubChem BioAssay AID504791 (Drosophila RNAi Screening Center, 2011)

Aim: 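Genes whose knock-down strengthens or weakens small-RNA reporter silencing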 (primary screen)
Cell system: Drosophila S2-derived reporter cells
Knock-down reagent: long dsRNA against Drosophila genes, about 150-250 ng dsRNA per well (siRNA assay); about 80-120 ng (miRNA assay)
Timing: about 5 days (siRNA assay); about 4 days (miRNA assay)
Challenge: copper sulfate induction of reporters: 25 µM (siRNA assay); 200 mM stated (miRNA assay), 1-2 days before reading
Read-out: 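Per-well ratio of Renilla over firefly light, expressed relative to that plate's average ratio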
Active means: 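First-pass picks had plate-scaled ratios over 1.5 for the siRNA assay, over 1.6 for the miRNA assay, or under 0.6; two distinct dsRNAs had to score alike on retest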
The screen tested about 23,000 reagents; shown is a random part of those with a known target gene and a result. Over the whole deposit, 199 (0.86%) are marked active. 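Plate-scaled ratios behind the calls are not deposited; printed light signals are raw; many rows marked increased or decreased are still called inactive.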 Names joined by + are all predicted targets of the reagent. Reagent sequences are not shown. Not given: the direction of the score.

target	DRSC id	stable siRNA reporter change	stable assay Renilla, run 1 (luminescence)	stable assay firefly, run 1 (luminescence)	outcome
CG33013 (retired record) (GeneID 318830)	DRSC06286		6398	3.30e5	inactive
Usp16-45 (GeneID 31458)	DRSC18352		8102	4.66e5	inactive
CG8671 (GeneID 35400)	DRSC03102		6599	3.19e5	inactive
CG8671 (GeneID 35400)	DRSC03103		7350	3.17e5	inactive
Cpr49Ah (GeneID 36354)	DRSC07204		6654	3.47e5	inactive
p130CAS (GeneID 38021)	DRSC07862		5855	4.40e5	inactive
p130CAS (GeneID 38021)	DRSC08257		9788	3.00e5	inactive
CG15153 (GeneID 35080)	DRSC02454		6399	3.31e5	inactive
CG32369 (GeneID 38873)	DRSC10042		5248	2.50e5	inactive
CG32369 (GeneID 38873)	DRSC10834		6798	2.99e5	inactive
alphaTub84B (GeneID 40848)	DRSC12622		8243	4.52e5	inactive
Cht9 (GeneID 37392)	DRSC04079		1.79e5	4.01e5	inactive
alph (GeneID 43481)	DRSC15398		9119	5.41e5	inactive
GCS2beta (GeneID 35056)	DRSC02960		4983	4.78e5	inactive
CG5339 (GeneID 37794)	DRSC04496		13892	1.27e6	inactive
Srr (GeneID 41117)	DRSC16382		7022	4.46e5	inactive
Zw10 (GeneID 47874)	DRSC18793		7963	4.42e5	inactive
hay (GeneID 39202)	DRSC11354		5690	3.26e5	inactive
Snrk (GeneID 36579)	DRSC07192		7663	4.28e5	inactive
Snrk (GeneID 36579)	DRSC23332		4667	2.87e5	inactive
Cpr92A (GeneID 42333)	DRSC16000		7059	4.03e5	inactive
CG1137 (GeneID 40803)	DRSC12529		6363	3.89e5	inactive
CG31109 (GeneID 43001)	DRSC14648		7378	3.49e5	inactive
CG14182 (GeneID 40181)	DRSC10181		7648	3.31e5	inactive
CG33110 (GeneID 42659)	DRSC14694		4966	2.65e5	inactive
CG33110 (GeneID 42659)	DRSC16137		7066	3.99e5	inactive
CG43775 (GeneID 37863)	DRSC04206		5327	2.82e5	inactive
CG12679 (GeneID 33031)	DRSC20493		6131	3.17e5	inactive
Treh (GeneID 45368)	DRSC04548		25837	7.67e5	inactive
CG30471 (GeneID 246633)	DRSC07096		9359	4.42e5	inactive
CG8086 (GeneID 34131)	DRSC03078		11469	4.66e5	inactive
CG8086 (GeneID 34131)	DRSC03079		7655	3.64e5	inactive
CG15548 (GeneID 43667)	DRSC15086		6754	3.30e5	inactive
CG3448 (GeneID 39094)	DRSC10368		6450	3.58e5	inactive
CG14805 (GeneID 31146)	DRSC18554		6552	3.73e5	inactive
CG42502 + CG10570	DRSC02071		2.71e5	1.46e6	inactive
Ca-alpha1D (GeneID 34950)	DRSC03284		90646	1.21e6	inactive
Pop4 (GeneID 38889)	DRSC10955		5275	2.89e5	inactive
CG15599 (GeneID 32503)	DRSC19668		5118	3.78e5	inactive
Cpr49Ad (GeneID 36349)	DRSC07284		5738	2.80e5	inactive
Prat (GeneID 40935)	DRSC16797		8199	5.23e5	inactive
CG31647 (retired record) (GeneID 318869)	DRSC21903		10034	6.00e5	inactive
l(3)72Dr (GeneID 39778)	DRSC10478		6532	3.29e5	inactive
ppk10 (GeneID 3885617)	DRSC01123		6016	5.79e5	inactive
msb1l (GeneID 35254)	DRSC03572		10218	1.79e6	inactive
Eig71Ed (GeneID 39704)	DRSC11151		7319	4.52e5	inactive
CG9107 (GeneID 33843)	DRSC03138		27238	3.83e5	inactive
veil (GeneID 36968)	DRSC06892		9051	3.91e5	inactive
l(3)neo43 (GeneID 41851)	DRSC14988		6898	3.46e5	inactive
CG12016 + Dpm2	DRSC08224		6808	3.04e5	inactive
Ret (GeneID 43875)	DRSC03409		10811	1.27e6	inactive
Ret (GeneID 43875)	DRSC03410		7131	3.63e5	inactive
E(spl)m7-HLH (GeneID 43160)	DRSC16696		6924	3.39e5	inactive
Mvk + CG33672 + spt4	DRSC05356		5843	4.45e5	inactive
Mvk + CG33672 + spt4	DRSC06628		8798	6.05e5	inactive
CG15014 (GeneID 38533)	DRSC08468		6591	5.54e5	inactive
CG17328 (GeneID 34962)	DRSC01927		5343	4.00e5	inactive
CG17328 (GeneID 34962)	DRSC22448	reporter ratio raised past the hit cutoff	1619	70415	inactive

In a second layout: entries from further up.
{"target": "alphaTub84B (GeneID 40848)", "DRSC id": "DRSC12622", "stable assay Renilla, run 1 (luminescence)": 8243, "stable assay firefly, run 1 (luminescence)": 4.52e5, "outcome": "inactive"}
{"target": "Cht9 (GeneID 37392)", "DRSC id": "DRSC04079", "stable assay Renilla, run 1 (luminescence)": 1.79e5, "stable assay firefly, run 1 (luminescence)": 4.01e5, "outcome": "inactive"}
{"target": "alph (GeneID 43481)", "DRSC id": "DRSC15398", "stable assay Renilla, run 1 (luminescence)": 9119, "stable assay firefly, run 1 (luminescence)": 5.41e5, "outcome": "inactive"}
{"target": "GCS2beta (GeneID 35056)", "DRSC id": "DRSC02960", "stable assay Renilla, run 1 (luminescence)": 4983, "stable assay firefly, run 1 (luminescence)": 4.78e5, "outcome": "inactive"}
{"target": "CG5339 (GeneID 37794)", "DRSC id": "DRSC04496", "stable assay Renilla, run 1 (luminescence)": 13892, "stable assay firefly, run 1 (luminescence)": 1.27e6, "outcome": "inactive"}
{"target": "Srr (GeneID 41117)", "DRSC id": "DRSC16382", "stable assay Renilla, run 1 (luminescence)": 7022, "stable assay firefly, run 1 (luminescence)": 4.46e5, "outcome": "inactive"}
{"target": "Zw10 (GeneID 47874)", "DRSC id": "DRSC18793", "stable assay Renilla, run 1 (luminescence)": 7963, "stable assay firefly, run 1 (luminescence)": 4.42e5, "outcome": "inactive"}
{"target": "hay (GeneID 39202)", "DRSC id": "DRSC11354", "stable assay Renilla, run 1 (luminescence)": 5690, "stable assay firefly, run 1 (luminescence)": 3.26e5, "outcome": "inactive"}
{"target": "Snrk (GeneID 36579)", "DRSC id": "DRSC07192", "stable assay Renilla, run 1 (luminescence)": 7663, "stable assay firefly, run 1 (luminescence)": 4.28e5, "outcome": "inactive"}
{"target": "Snrk (GeneID 36579)", "DRSC id": "DRSC23332", "stable assay Renilla, run 1 (luminescence)": 4667, "stable assay firefly, run 1 (luminescence)": 2.87e5, "outcome": "inactive"}
